In the supplement of paper PMC12067093, “Discovery and optimisation of a covalent ligand for TRIM25 and its application to targeted protein ubiquitination” (Chemical Science, 2025):
Some of the results follow.

The chains behind the UniProt entries cited, without tags or fusion partners. Where a name states a change or a piece, a line headed by the entry shows the natural chain unless it says otherwise.
UniProt Q9NUQ6: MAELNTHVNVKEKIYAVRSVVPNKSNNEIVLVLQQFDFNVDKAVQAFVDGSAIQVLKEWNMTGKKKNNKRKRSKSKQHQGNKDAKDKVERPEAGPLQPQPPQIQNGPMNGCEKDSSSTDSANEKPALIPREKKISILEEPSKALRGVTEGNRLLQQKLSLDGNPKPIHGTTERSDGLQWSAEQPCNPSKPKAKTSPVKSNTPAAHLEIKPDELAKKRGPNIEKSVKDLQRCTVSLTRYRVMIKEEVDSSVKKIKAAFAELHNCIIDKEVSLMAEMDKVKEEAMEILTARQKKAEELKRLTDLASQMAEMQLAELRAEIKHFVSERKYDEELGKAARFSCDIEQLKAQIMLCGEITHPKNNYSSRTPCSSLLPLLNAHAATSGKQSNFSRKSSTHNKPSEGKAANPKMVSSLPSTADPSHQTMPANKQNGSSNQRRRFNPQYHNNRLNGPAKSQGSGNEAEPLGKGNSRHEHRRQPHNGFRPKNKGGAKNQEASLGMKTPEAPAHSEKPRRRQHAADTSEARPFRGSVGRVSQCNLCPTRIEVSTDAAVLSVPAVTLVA
UniProt O76094: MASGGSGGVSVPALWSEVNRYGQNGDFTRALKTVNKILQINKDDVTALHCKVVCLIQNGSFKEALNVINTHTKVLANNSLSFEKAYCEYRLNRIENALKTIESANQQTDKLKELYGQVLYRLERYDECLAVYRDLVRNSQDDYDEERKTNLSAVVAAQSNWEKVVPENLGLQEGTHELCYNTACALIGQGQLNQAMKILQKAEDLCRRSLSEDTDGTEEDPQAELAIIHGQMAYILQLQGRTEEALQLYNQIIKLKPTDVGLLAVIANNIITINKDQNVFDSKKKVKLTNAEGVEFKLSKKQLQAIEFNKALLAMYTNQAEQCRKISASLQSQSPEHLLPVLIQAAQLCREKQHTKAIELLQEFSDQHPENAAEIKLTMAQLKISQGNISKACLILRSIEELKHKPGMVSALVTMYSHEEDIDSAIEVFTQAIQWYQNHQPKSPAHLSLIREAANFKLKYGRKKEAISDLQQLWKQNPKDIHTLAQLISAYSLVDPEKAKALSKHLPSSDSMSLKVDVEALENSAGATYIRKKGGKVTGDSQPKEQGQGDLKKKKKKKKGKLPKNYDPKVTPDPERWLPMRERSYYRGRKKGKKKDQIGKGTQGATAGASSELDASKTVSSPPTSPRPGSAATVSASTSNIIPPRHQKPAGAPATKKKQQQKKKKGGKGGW
UniProt P08047, whole entry, looked up: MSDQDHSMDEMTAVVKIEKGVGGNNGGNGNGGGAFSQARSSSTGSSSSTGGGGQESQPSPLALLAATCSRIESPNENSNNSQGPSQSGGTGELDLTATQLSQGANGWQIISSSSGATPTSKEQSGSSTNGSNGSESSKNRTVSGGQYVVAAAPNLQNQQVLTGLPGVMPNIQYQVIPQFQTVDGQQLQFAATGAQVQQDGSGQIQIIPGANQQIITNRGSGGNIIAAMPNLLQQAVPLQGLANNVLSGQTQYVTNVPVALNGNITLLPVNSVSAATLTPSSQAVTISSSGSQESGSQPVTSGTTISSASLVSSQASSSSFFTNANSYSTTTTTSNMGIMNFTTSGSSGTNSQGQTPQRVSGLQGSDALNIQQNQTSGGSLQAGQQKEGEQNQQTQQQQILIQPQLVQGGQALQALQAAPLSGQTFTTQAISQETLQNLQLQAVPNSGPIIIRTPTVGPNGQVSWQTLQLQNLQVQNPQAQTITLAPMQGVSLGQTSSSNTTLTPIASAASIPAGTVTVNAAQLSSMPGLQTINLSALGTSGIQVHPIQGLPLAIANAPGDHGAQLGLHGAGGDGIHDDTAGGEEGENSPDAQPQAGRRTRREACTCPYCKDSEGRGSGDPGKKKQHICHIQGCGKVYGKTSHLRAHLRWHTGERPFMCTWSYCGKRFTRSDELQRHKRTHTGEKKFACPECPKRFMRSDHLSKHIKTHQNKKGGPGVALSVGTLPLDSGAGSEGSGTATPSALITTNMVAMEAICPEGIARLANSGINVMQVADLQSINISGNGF
UniProt P55769: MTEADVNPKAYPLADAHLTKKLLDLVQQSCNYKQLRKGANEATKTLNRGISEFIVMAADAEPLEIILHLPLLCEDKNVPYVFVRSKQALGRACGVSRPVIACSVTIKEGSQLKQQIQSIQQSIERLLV
UniProt Q96R06: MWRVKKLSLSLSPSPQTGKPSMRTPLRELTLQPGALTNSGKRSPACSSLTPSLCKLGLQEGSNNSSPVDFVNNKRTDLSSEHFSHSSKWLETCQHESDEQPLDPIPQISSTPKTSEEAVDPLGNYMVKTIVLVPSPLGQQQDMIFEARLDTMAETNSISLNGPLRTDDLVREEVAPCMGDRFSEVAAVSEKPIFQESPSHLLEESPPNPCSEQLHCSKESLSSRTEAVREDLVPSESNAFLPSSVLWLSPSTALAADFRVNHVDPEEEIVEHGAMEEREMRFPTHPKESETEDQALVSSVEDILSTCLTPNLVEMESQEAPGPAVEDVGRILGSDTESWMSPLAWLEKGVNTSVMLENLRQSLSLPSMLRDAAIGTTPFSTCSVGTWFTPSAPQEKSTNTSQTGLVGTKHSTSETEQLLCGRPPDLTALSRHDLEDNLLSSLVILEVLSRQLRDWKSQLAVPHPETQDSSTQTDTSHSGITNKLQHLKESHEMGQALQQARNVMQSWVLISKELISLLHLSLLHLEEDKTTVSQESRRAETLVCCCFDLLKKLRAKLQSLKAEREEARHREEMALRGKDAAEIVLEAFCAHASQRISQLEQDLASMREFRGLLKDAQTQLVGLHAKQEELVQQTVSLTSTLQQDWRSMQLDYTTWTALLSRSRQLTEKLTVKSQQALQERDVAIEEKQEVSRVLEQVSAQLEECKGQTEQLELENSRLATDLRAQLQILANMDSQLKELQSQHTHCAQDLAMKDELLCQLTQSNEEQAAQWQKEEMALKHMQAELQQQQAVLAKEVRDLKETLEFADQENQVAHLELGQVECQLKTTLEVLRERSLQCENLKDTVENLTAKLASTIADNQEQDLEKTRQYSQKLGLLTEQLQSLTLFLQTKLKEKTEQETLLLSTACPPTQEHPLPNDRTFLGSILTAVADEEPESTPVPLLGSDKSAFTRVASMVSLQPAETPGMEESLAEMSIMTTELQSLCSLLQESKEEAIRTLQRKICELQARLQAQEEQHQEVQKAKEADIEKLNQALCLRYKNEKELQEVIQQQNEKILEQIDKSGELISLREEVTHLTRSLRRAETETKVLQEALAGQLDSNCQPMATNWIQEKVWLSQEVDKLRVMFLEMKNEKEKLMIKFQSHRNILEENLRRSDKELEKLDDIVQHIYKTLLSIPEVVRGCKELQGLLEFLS
UniProt Q96SB4, whole entry, looked up: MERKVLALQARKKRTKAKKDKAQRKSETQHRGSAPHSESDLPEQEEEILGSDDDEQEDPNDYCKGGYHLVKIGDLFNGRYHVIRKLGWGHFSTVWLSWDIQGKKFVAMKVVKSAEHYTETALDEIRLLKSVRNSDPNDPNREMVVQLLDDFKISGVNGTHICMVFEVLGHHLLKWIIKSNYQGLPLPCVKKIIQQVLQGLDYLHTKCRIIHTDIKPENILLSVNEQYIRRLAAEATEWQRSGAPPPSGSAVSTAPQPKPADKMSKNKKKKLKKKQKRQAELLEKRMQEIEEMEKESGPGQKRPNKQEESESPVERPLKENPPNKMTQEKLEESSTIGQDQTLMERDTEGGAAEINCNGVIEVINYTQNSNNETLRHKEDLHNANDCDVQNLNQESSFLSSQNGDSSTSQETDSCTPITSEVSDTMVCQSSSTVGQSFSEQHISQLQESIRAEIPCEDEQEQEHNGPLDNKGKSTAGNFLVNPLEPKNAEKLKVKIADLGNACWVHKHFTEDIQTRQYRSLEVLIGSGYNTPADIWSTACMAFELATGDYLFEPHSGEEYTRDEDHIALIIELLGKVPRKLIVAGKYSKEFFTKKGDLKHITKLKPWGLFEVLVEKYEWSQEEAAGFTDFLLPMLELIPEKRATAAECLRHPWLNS
UniProt Q9Y5M8: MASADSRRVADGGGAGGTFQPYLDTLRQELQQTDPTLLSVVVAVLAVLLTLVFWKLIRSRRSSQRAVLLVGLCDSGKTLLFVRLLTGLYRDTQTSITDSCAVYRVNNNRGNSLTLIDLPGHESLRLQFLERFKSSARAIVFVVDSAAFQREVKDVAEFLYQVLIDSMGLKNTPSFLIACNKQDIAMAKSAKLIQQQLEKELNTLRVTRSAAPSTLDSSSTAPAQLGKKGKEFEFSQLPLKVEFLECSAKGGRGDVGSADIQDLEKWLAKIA
UniProt O95149, whole entry, looked up: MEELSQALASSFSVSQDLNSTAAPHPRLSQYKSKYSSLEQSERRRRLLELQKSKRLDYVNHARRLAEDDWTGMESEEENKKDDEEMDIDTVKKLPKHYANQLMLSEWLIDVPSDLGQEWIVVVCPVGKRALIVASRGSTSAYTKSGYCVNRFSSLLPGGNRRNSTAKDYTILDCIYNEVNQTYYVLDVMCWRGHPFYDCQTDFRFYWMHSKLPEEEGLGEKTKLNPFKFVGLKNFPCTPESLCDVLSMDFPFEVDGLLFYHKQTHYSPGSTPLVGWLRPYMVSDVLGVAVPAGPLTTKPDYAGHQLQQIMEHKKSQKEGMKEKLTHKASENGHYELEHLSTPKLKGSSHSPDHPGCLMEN
UniProt P49458: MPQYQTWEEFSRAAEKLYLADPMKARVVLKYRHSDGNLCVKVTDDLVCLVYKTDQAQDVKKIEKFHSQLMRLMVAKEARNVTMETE
UniProt Q5T280: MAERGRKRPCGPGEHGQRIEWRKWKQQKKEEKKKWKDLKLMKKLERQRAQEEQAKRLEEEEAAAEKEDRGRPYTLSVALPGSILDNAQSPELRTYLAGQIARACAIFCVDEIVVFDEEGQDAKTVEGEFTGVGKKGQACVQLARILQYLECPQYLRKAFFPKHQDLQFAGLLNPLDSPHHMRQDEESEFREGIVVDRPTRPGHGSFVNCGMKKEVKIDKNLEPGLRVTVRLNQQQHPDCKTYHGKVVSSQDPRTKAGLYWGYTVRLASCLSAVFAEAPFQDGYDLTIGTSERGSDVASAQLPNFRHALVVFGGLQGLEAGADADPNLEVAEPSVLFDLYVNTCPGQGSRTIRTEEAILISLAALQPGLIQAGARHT
UniProt Q02447: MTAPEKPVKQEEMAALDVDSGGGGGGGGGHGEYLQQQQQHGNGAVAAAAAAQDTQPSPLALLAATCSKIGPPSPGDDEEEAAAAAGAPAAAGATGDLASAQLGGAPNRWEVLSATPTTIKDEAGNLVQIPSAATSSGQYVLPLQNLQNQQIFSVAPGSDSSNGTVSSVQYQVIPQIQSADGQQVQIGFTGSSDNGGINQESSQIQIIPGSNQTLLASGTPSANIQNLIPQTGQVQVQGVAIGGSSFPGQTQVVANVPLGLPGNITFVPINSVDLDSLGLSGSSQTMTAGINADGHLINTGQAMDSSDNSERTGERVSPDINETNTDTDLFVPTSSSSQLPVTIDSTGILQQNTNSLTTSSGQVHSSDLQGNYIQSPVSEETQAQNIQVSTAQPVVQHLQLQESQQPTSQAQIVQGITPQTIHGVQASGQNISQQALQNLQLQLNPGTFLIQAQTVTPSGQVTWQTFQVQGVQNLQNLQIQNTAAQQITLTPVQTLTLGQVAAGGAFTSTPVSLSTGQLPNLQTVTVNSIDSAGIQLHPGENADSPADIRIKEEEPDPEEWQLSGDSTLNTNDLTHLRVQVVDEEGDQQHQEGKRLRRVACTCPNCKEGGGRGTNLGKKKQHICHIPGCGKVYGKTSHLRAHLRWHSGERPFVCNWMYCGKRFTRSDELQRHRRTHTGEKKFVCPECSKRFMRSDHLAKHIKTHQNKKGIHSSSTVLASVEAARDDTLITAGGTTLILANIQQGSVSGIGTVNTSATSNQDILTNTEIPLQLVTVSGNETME
UniProt O15270: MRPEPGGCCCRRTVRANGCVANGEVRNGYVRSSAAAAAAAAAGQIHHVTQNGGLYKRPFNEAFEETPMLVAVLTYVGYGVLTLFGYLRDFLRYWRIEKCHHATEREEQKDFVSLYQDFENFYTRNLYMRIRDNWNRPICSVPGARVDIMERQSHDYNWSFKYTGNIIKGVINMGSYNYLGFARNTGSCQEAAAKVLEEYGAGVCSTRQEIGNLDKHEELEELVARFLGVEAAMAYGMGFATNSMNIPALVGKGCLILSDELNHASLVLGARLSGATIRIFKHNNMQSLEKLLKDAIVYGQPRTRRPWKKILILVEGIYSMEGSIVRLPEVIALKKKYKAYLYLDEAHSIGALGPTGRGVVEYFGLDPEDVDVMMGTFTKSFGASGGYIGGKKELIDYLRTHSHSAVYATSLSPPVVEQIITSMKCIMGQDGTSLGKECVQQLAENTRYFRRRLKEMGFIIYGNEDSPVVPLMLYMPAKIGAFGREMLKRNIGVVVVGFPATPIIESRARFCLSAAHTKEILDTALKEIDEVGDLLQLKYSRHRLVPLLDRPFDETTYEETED
UniProt P00441, whole entry, looked up: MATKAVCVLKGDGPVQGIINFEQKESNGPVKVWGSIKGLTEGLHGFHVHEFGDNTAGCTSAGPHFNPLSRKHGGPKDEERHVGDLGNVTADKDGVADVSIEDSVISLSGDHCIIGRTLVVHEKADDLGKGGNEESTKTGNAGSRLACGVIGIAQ

compound: Cc1cc(ccc1-c1ccccc1)C(=O)N1CCCN(CC1)C(=O)CCl [compound 10]; assay: probe-labelled cysteine peptide fold change vs DMSO (competition) (log2 fold change); higher = less target engagement (more negative = stronger competition); settings: 10 µM; THP-1; incubation time: 4 h
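Also: competitive profiling in live THP-1 cells: cysteine peptides tagged with an iodoacetamide desthiobiotin (IA-DTB) probe, intensity after compound treatment relative to DMSO-treated cells.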

Target	probe-labelled cysteine peptide fold change
SPATS2L_Q9NUQ6_185_SDGLQWSAEQPCNPSKPK (UniProt Q9NUQ6)	-0.0225
SRP72_O76094_323_ALLAMYTNQAEQCR (UniProt O76094)	-0.0676
SP1_P08047_633_QHICHIQGCGK (UniProt P08047)	0.0101
SNU13_P55769_30_LLDLVQQSCNYK (UniProt P55769)	0.0842
SPAG5_Q96R06_420_HSTSETEQLLCGRPPDLTALSR (UniProt Q96R06)	-0.145
SRPK1_Q96SB4_647_ATAAECLR (UniProt Q96SB4)	-0.0571
SNX3_O60493_140_CLHMFLQDEIIDK (UniProt O60493)	-0.0431
SRPRB_Q9Y5M8_179_NTPSFLIACNK (UniProt Q9Y5M8)	0.136

same assay, conditions: 50 µM; THP-1; incubation time: 4 h

Target	probe-labelled cysteine peptide fold change
SNUPN_O95149_199_GHPFYDCQTDFR (UniProt O95149)	-0.0261
SPTLC1_O15269_192_AACFAIQK (UniProt O15269)	0.0618
SRP9_P49458_48_VTDDLVCLVYKTDQAQDVK (UniProt P49458)	-0.628
SPOUT1_Q5T280_139_KGQACVQLAR (UniProt Q5T280)	-0.132
SON_P18583_92_CVSVQTDPTDEIPTKK (UniProt P18583)	-1.24
SPOUT1_Q5T280_151_ILQYLECPQYLR (UniProt Q5T280)	0.304
SQOR_Q9Y6N5_337_RYPNVFGIGDCTNLPTSK (UniProt Q9Y6N5)	0.00585
SPATA20_Q8TB22_721_ALVQCVHSVYIPNK (UniProt Q8TB22)	-0.0853
SPAG7_O75391_101_SILHDVVEVAGLTSFSFGEDDDCR (UniProt O75391)	-0.0999
SP3_Q02447_602_VACTCPNCK (UniProt Q02447)	0.393
SREBF2_Q12772_832_AGDQEEESCEFSSALEYLK (UniProt Q12772)	-0.629
SP110_Q9HB58_327_DDSTCNSTVETR (UniProt Q9HB58)	-0.0392
SPAST_Q9UBP0_220_SQTDVYNDSTNLACR (UniProt Q9UBP0)	-0.251
SPTBN1_Q01082_964_DALLSALSIQNYHLECNETK (UniProt Q01082)	0.0494
SRBD1_Q8N5C6_912_SIVCLEDLQIGTVLTGK (UniProt Q8N5C6)	0.181
SORBS3_O60504_482_GEHICLIR (UniProt O60504)	-0.222
SPTLC2_O15270_139_IRDNWNRPICSVPGAR (UniProt O15270)	0.0428
SP100_P23497_266+270_EMPCPLPCDEESPEAELHNHGIQINSCSVR (UniProt P23497)	-1.25

Target	probe-labelled cysteine peptide fold change
SRPK2_P78362_223_IIHTDIKPENILMCVDDAYVR (UniProt P78362)	-0.0048
SPG11_Q96JI7_1890_LLDDGCVHEASR (UniProt Q96JI7)	-0.371
SPECC1_Q5M775_598_DLLELSCNELR (UniProt Q5M775)	0.0805
SPAG5_Q96R06_907_TEQETLLLSTACPPTQEHPLPNDR (UniProt Q96R06)	0.0555
SP100_P23497_373_EGQEATCSRPQIVPEPMDFRK (UniProt P23497)	-0.491
SP100_P23497_309_VECQAQAR (UniProt P23497)	-0.242
SOD1_P00441_7_AVCVLK (UniProt P00441)	-0.0133
SORD_Q00796_301_YCNTWPVAISMLASK (UniProt Q00796)	0.115
SOD1_P00441_147_LACGVIGIAQ (UniProt P00441)	-0.114
SRCAP_Q6ZRS2_2372_EEVFRLPQEEEEGPGAGDESSCGTGGGTHR (UniProt Q6ZRS2)	0.131
SP3_Q02447_623+628_KQHICHIPGCGK (UniProt Q02447)	-0.374
SRM_P19623_205+209_EDGVLCCQGECQWLHLDLIK (UniProt P19623)	-0.00622
SRI_P30626_162_ITFDDYIACCVK (UniProt P30626)	-0.143
SNX20_Q7Z614_155_HLTGNFAEEMICER (UniProt Q7Z614)	-0.38
SPATS2L_Q9NUQ6_185_SDGLQWSAEQPCNPSKPK (UniProt Q9NUQ6)	-0.476
SRP72_O76094_323_ALLAMYTNQAEQCR (UniProt O76094)	-0.0424
SP1_P08047_633_QHICHIQGCGK (UniProt P08047)	-0.0604
SNU13_P55769_30_LLDLVQQSCNYK (UniProt P55769)	0.135
